Test results as given in ChEMBL document CHEMBL4028900, “Design of Novel 3-Pyrimidinylazaindole CDK2/9 Inhibitors with Potent In Vitro and In Vivo Antitumor Efficacy in a Triple-Negative Breast Cancer Model” (J Med Chem, 2017).

Chains of the proteins cited; added tags and fusions are not shown. Lines headed by an entry give the natural chain unless they say otherwise; changes in a name come on top.
UniProt P53779: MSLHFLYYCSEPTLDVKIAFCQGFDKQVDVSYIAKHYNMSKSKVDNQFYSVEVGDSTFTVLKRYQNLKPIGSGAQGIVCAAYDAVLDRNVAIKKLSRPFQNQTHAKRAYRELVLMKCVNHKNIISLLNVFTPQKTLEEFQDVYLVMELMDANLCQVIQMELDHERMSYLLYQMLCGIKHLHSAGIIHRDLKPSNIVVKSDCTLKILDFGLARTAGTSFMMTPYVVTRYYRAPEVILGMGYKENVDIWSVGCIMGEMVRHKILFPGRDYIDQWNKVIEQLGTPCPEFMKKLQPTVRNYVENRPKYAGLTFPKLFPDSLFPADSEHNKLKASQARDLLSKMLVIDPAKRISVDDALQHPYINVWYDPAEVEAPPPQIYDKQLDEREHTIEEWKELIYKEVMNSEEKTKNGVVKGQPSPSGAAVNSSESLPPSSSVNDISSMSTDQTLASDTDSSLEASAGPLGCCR
UniProt P42336, whole entry: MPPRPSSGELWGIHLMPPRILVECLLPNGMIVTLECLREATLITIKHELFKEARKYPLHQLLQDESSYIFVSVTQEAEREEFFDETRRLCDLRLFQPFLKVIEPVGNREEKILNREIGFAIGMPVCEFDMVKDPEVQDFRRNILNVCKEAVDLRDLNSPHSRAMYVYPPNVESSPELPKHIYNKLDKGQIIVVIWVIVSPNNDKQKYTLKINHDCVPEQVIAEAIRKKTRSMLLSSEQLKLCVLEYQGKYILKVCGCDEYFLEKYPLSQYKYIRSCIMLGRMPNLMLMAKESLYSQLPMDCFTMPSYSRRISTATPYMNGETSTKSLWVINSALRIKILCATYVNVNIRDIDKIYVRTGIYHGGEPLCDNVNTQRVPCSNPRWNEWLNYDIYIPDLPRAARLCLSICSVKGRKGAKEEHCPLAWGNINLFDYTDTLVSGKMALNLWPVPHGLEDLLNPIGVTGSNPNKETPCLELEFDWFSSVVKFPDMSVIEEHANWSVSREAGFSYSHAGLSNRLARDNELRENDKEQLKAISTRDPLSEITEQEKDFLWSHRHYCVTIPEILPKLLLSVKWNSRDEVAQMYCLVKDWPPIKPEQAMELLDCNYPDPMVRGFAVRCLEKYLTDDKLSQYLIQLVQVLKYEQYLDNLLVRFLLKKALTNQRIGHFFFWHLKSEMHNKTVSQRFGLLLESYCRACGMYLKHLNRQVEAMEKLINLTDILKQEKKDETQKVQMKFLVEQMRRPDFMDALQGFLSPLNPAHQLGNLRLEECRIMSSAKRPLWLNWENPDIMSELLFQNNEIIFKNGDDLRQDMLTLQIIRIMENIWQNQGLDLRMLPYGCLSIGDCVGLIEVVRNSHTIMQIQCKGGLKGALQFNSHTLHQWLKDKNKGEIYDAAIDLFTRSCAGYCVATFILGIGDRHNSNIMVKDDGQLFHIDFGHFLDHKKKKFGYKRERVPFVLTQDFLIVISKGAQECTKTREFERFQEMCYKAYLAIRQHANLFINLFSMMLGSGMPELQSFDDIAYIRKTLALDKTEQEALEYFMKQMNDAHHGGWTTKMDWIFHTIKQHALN
UniProt P17948, whole entry: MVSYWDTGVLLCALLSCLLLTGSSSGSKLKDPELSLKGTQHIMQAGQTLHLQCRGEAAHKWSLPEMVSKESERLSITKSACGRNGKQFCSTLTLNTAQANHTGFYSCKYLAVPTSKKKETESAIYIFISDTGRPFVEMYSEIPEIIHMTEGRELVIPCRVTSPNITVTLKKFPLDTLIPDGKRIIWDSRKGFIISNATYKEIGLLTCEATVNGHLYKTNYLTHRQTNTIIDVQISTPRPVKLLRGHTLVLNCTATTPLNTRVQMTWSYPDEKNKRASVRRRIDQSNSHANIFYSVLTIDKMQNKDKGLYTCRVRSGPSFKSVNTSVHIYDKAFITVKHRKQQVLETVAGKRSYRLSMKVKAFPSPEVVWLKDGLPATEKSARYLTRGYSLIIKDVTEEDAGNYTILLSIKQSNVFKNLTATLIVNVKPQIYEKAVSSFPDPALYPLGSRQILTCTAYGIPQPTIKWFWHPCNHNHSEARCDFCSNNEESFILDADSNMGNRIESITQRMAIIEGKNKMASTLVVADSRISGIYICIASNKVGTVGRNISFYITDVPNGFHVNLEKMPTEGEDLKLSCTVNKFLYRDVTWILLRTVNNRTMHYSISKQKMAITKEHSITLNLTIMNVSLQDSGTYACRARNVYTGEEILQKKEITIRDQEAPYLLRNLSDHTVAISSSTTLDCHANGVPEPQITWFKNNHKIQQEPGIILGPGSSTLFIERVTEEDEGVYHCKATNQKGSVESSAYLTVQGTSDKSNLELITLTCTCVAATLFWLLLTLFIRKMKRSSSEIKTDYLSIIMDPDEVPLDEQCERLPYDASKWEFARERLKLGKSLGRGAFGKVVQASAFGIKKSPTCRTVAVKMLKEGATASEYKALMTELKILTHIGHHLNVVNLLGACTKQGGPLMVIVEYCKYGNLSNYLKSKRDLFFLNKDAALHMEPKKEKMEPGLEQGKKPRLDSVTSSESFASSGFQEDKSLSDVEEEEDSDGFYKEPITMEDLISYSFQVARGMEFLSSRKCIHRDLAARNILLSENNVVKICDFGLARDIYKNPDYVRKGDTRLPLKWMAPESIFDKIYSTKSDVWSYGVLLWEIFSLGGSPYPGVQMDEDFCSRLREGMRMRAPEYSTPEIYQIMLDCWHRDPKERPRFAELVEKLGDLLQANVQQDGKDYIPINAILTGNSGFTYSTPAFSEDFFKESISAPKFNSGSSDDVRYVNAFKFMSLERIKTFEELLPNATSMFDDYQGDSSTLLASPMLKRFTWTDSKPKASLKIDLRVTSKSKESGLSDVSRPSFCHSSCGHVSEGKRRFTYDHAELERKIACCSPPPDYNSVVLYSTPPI
UniProt P06239: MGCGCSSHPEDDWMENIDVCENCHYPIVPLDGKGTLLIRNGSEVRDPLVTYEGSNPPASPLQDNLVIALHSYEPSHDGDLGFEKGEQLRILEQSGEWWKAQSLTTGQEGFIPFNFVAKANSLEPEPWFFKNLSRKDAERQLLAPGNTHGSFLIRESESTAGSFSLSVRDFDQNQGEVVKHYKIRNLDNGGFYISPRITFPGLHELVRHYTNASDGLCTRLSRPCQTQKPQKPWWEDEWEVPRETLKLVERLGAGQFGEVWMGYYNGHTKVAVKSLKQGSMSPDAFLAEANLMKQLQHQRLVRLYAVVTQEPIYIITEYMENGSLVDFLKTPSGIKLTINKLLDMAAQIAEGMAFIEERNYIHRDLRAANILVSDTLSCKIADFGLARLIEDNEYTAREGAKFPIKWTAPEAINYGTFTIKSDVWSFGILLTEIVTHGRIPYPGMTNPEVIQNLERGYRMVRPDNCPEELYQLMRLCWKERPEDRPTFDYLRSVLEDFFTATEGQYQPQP
UniProt Q13882, whole entry, looked up: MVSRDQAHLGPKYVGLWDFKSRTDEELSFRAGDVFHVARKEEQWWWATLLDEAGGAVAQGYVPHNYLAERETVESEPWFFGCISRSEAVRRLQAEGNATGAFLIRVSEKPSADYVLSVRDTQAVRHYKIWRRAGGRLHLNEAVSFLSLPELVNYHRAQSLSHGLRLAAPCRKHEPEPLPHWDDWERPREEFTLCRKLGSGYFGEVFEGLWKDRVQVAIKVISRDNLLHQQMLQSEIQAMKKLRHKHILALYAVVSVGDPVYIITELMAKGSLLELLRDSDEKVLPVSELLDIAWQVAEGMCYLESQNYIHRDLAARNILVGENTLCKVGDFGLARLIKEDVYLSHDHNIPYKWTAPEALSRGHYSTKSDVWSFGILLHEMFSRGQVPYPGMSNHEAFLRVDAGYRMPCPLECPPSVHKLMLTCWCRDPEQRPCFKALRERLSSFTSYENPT
UniProt Q9P289: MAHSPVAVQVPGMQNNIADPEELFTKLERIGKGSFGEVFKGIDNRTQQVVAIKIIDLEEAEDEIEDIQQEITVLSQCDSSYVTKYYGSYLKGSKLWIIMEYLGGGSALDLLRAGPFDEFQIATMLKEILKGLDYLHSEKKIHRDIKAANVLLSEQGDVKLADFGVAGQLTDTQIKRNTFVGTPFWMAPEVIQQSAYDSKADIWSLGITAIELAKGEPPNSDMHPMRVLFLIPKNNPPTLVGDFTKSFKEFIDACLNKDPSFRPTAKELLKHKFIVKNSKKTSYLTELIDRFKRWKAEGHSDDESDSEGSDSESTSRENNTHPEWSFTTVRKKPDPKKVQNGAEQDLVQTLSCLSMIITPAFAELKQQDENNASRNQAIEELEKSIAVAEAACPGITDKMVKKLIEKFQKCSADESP
UniProt P53350, whole entry: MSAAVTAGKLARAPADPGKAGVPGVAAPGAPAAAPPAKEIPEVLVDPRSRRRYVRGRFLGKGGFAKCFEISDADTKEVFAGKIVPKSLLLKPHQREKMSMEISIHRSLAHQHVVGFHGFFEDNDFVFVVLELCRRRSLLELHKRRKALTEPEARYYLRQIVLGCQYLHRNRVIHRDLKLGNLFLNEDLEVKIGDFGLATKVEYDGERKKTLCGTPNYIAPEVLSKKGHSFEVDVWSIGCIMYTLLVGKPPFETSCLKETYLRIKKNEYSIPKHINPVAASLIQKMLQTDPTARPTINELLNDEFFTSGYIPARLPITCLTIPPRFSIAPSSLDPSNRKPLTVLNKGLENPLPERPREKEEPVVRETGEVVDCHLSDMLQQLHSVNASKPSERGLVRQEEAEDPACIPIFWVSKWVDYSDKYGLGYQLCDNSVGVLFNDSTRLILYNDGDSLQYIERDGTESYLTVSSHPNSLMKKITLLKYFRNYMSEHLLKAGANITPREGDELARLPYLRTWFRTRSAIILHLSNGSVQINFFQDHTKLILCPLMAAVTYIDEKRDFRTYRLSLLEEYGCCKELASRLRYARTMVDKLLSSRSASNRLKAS
UniProt P14616: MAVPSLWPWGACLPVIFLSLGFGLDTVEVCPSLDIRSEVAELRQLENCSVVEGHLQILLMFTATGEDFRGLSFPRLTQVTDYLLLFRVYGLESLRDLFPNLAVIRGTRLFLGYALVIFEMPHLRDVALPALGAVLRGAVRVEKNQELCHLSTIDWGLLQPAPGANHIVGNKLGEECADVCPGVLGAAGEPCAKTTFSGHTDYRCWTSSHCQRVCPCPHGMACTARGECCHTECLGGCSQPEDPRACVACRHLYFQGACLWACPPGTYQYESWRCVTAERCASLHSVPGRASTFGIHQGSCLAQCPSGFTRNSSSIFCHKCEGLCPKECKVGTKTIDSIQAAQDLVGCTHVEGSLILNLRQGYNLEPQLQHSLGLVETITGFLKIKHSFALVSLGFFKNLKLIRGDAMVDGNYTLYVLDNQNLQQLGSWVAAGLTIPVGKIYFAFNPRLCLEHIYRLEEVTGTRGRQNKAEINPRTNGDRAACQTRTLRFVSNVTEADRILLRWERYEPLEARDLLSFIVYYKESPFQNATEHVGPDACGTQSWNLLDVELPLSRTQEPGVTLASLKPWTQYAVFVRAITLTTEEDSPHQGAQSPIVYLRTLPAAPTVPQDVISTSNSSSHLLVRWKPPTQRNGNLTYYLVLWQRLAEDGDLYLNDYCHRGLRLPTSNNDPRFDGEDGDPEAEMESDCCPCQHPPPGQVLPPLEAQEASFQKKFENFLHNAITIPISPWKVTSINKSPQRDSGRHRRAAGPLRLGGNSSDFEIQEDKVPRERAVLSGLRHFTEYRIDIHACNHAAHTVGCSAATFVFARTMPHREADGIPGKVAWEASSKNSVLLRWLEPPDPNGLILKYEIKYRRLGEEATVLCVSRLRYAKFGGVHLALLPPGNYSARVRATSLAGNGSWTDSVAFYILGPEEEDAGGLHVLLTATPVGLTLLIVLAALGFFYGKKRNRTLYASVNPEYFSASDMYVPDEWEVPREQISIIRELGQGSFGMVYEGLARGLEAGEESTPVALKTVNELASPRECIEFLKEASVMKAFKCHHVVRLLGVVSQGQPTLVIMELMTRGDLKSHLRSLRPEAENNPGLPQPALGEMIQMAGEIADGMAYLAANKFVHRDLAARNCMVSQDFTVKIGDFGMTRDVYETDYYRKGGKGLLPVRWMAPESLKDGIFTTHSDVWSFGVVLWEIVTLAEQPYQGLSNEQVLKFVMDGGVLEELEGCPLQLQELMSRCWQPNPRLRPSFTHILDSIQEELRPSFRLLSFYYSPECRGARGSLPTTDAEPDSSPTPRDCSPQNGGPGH
UniProt P24385: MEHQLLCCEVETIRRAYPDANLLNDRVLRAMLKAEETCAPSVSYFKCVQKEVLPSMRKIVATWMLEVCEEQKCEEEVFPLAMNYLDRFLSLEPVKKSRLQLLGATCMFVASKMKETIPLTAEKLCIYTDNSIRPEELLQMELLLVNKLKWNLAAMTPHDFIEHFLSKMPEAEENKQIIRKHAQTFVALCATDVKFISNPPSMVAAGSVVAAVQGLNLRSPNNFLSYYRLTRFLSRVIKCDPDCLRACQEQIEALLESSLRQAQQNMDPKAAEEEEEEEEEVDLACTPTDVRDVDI

Columns and labels:
[1] = target: Tyrosine-protein kinase CSK (Homo sapiens) (UniProt P41240); assay: Inhibition of CSK (unknown origin) at 100 nM relative to control
[2] = target: Mitogen-activated protein kinase 10 (Homo sapiens) (UniProt P53779); assay: Inhibition of JNK3 (unknown origin) at 500 nM relative to control
[3] = target: Tyrosine-protein kinase CSK (Homo sapiens) (UniProt P41240); assay: Inhibition of CSK (unknown origin) at 500 nM relative to control
[4] = target: Phosphatidylinositol 4,5-bisphosphate 3-kinase catalytic subunit alpha isoform (Homo sapiens) (UniProt P42336); assay: Inhibition of PI3Kalpha (unknown origin) at 100 nM relative to control
[5] = target: Mitogen-activated protein kinase 10 (Homo sapiens) (UniProt P53779); assay: Inhibition of JNK3 (unknown origin) at 100 nM relative to control
[6] = target: Vascular endothelial growth factor receptor 1 (Homo sapiens) (UniProt P17948); assay: Inhibition of VEGFR1 (unknown origin) at 500 nM relative to control
[7] = target: T1, Serine/threonine-protein kinase Sgk1 (Homo sapiens) (UniProt O00141); assay: Inhibition of SGK (unknown origin) at 500 nM relative to control
T1 sequence (whole entry): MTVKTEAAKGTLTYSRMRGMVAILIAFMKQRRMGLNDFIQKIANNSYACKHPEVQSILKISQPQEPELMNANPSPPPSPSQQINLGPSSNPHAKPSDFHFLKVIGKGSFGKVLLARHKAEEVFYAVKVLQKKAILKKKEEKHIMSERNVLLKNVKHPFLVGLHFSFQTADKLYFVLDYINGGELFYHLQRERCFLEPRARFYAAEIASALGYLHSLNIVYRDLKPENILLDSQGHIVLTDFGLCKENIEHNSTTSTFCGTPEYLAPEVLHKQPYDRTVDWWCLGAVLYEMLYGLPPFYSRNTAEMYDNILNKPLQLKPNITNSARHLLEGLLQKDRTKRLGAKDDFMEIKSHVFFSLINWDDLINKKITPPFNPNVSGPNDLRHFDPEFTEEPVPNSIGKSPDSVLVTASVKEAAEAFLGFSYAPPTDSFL

[8] = target: T2, Tyrosine-protein kinase JAK3 (Homo sapiens) (UniProt P52333); assay: Inhibition of JAK3 (unknown origin) at 500 nM relative to control
T2 sequence (whole entry): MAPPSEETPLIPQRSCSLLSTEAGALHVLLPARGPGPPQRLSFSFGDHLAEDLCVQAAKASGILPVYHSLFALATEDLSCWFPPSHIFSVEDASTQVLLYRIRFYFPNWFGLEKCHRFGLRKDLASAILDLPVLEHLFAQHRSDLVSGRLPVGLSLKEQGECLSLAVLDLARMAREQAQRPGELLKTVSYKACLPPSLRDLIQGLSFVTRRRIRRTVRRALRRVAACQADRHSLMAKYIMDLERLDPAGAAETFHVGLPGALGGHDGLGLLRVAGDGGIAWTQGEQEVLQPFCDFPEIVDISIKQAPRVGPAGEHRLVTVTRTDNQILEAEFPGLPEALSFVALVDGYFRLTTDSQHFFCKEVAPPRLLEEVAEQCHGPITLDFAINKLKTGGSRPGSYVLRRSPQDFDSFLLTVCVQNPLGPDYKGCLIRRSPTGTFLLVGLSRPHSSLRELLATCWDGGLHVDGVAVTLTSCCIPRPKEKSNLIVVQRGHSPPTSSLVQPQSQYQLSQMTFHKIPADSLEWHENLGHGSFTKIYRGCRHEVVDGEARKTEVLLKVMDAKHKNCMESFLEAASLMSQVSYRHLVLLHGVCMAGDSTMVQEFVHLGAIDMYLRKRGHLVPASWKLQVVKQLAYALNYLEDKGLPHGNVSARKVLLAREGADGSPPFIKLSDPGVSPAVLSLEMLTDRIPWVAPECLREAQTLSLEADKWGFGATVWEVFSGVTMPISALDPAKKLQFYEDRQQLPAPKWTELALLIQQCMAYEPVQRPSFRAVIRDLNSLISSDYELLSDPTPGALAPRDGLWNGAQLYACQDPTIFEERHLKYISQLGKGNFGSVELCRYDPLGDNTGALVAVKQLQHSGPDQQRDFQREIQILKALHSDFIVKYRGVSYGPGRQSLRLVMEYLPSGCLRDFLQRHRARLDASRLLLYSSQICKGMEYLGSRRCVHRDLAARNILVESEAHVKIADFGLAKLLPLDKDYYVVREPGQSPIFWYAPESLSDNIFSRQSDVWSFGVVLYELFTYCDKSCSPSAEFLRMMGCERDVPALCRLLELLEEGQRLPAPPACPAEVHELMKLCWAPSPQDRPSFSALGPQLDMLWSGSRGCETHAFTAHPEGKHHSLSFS

[9] = target: Tyrosine-protein kinase Lck (Homo sapiens) (UniProt P06239); assay: Inhibition of LCK (unknown origin) at 500 nM relative to control
[10] = target: T3, Serine/threonine-protein kinase Nek6 (Homo sapiens) (UniProt Q9HC98); assay: Inhibition of NEK6 (unknown origin) at 100 nM relative to control
T3 sequence (whole entry): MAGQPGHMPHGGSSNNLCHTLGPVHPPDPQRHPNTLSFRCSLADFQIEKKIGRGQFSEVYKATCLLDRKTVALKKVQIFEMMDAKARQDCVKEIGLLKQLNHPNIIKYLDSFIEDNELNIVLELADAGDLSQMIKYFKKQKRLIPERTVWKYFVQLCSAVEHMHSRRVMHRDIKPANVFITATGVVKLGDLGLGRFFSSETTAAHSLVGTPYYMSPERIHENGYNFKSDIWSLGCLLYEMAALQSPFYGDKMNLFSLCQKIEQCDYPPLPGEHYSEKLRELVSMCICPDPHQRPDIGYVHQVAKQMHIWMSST

[11] = target: T3, Serine/threonine-protein kinase Nek6 (Homo sapiens); assay: Inhibition of NEK6 (unknown origin) at 500 nM relative to control
[12] = target: Ribosomal protein S6 kinase beta-1 (Homo sapiens) (UniProt P23443); assay: Inhibition of S6K1 (unknown origin) at 500 nM relative to control
[13] = target: T4, Inhibitor of nuclear factor kappa-B kinase subunit beta (Homo sapiens) (UniProt O14920); assay: Inhibition of IKKbeta (unknown origin) at 100 nM relative to control
T4 sequence (whole entry): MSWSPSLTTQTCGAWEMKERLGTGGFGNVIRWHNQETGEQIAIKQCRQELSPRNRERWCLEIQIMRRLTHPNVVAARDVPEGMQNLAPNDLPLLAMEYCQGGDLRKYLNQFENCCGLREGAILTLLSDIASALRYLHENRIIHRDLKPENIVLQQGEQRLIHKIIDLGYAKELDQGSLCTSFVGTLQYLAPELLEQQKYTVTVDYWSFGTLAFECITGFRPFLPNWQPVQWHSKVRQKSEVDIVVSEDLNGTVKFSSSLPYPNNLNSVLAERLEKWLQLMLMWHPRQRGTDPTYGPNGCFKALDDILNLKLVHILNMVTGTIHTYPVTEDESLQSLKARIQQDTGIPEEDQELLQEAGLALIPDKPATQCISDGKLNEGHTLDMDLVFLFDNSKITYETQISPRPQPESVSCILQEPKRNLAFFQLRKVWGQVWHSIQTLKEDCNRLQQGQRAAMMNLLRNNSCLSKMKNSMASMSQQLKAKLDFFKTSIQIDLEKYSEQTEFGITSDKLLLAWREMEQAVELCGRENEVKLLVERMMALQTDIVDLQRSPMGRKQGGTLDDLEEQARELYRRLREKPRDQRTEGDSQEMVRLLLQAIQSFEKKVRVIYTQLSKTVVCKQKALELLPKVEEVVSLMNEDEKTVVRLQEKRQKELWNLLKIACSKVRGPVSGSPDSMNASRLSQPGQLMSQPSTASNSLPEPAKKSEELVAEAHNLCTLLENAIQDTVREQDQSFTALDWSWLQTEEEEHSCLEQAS

[14] = target: Glycogen synthase kinase-3 beta (Homo sapiens) (UniProt P49841); assay: Inhibition of GSK3b (unknown origin) at 500 nM relative to control
[15] = target: Ribosomal protein S6 kinase beta-1 (Homo sapiens) (UniProt P23443); assay: Inhibition of S6K1 (unknown origin) at 100 nM relative to control
[16] = target: Protein-tyrosine kinase 6 (Homo sapiens) (UniProt Q13882); assay: Inhibition of BRK (unknown origin) at 500 nM relative to control
[17] = target: Tyrosine-protein kinase Lck (Homo sapiens) (UniProt P06239); assay: Inhibition of LCK (unknown origin) at 100 nM relative to control
[18] = target: Phosphatidylinositol 4,5-bisphosphate 3-kinase catalytic subunit alpha isoform (Homo sapiens) (UniProt P42336); assay: Inhibition of PI3Kalpha (unknown origin) at 500 nM relative to control
[19] = target: Serine/threonine-protein kinase 26 (Homo sapiens) (UniProt Q9P289); assay: Inhibition of MST4 (unknown origin) at 500 nM relative to control
[20] = target: T5, Serine/threonine-protein kinase Chk1 (Homo sapiens) (UniProt O14757); assay: Inhibition of CHK1 (unknown origin) at 100 nM relative to control
T5 sequence (whole entry): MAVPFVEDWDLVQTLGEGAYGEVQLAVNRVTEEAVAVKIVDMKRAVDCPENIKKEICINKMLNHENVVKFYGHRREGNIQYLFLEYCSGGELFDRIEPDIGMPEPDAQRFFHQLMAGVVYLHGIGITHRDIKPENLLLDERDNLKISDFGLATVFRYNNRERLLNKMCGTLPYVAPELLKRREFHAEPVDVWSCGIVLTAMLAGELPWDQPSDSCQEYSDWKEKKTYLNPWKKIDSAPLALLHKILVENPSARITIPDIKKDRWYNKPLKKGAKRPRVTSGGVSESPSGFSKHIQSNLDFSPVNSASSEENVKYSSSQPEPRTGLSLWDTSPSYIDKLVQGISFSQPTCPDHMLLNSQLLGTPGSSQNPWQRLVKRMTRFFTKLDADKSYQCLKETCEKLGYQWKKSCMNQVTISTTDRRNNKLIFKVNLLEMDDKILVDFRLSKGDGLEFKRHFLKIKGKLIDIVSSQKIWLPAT

[21] = target: Serine/threonine-protein kinase PLK1 (Homo sapiens) (UniProt P53350); assay: Inhibition of PLK1 (unknown origin) at 100 nM relative to control
[22] = target: T4, Inhibitor of nuclear factor kappa-B kinase subunit beta (Homo sapiens); assay: Inhibition of IKKbeta (unknown origin) at 500 nM relative to control
[23] = target: T6, Aurora kinase A (Homo sapiens) (UniProt O14965); assay: Inhibition of aurora A (unknown origin) at 100 nM relative to control
T6 sequence (whole entry): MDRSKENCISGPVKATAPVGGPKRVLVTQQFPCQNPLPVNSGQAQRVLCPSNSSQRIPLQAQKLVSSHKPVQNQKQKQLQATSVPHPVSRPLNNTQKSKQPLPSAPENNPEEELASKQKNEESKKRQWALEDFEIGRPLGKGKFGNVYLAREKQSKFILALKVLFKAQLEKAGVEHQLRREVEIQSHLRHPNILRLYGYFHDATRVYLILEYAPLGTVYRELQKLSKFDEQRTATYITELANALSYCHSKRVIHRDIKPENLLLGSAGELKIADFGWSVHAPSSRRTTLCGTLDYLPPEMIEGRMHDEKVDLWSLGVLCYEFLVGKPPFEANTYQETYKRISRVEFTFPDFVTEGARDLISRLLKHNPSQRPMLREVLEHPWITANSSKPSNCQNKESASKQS

[24] = target: Insulin receptor-related protein (Homo sapiens) (UniProt P14616); assay: Inhibition of IRR (unknown origin) at 100 nM relative to control
[25] = target: Insulin receptor-related protein (Homo sapiens) (UniProt P14616); assay: Inhibition of IRR (unknown origin) at 500 nM relative to control
[26] = target: Dual specificity tyrosine-phosphorylation-regulated kinase 1A (Homo sapiens) (UniProt Q13627); conditions: at 100 nM
[27] = target: Vascular endothelial growth factor receptor 1 (Homo sapiens) (UniProt P17948); assay: Inhibition of VEGFR1 (unknown origin) at 100 nM relative to control
[28] = target: T2, Tyrosine-protein kinase JAK3 (Homo sapiens); assay: Inhibition of JAK3 (unknown origin) at 100 nM relative to control
[29] = target: Serine/threonine-protein kinase PLK1 (Homo sapiens) (UniProt P53350); assay: Inhibition of PLK1 (unknown origin) at 500 nM relative to control
[30] = target: T1, Serine/threonine-protein kinase Sgk1 (Homo sapiens); assay: Inhibition of SGK (unknown origin) at 100 nM relative to control
[31] = target: Dual specificity tyrosine-phosphorylation-regulated kinase 1A (Homo sapiens) (UniProt Q13627); conditions: at 500 nM
[32] = target: T6, Aurora kinase A (Homo sapiens); assay: Inhibition of aurora A (unknown origin) at 500 nM relative to control
[33] = target: Cyclin-dependent kinase 4/cyclin D1 (Homo sapiens) (UniProt P11802+P24385); assay: Inhibition of CDK4/cyclin D1 (unknown origin) at 500 nM relative to control; type: protein-complex assay
[34] = target: T5, Serine/threonine-protein kinase Chk1 (Homo sapiens); assay: Inhibition of CHK1 (unknown origin) at 500 nM relative to control
[35] = target: Glycogen synthase kinase-3 beta (Homo sapiens) (UniProt P49841); assay: Inhibition of GSK3b (unknown origin) at 100 nM relative to control
[36] = target: Protein-tyrosine kinase 6 (Homo sapiens) (UniProt Q13882); assay: Inhibition of BRK (unknown origin) at 100 nM relative to control
[37] = target: Serine/threonine-protein kinase 26 (Homo sapiens) (UniProt Q9P289); assay: Inhibition of MST4 (unknown origin) at 100 nM relative to control

Compound: Nc1nccc(-c2c[nH]c3ncc(-c4ccc(F)cc4)cc23)n1
- inhibition [1]: 14.7%
- inhibition [2]: 69.3%
- inhibition [3]: 3.3%
- inhibition [4]: 27.4%
- inhibition [5]: 25.5%
- inhibition [6]: 86.9%
- inhibition [7]: 40.4%
- inhibition [8]: 52.8%
- inhibition [9]: 47.7%
- inhibition [10]: 6%
- inhibition [11]: 19.2%
- inhibition [12]: 30.1%
- inhibition [13]: 54.5%
- inhibition [14]: 52.3%
- inhibition [15]: 7.9%
- inhibition [16]: 20.4%
- inhibition [17]: 33.3%
- inhibition [18]: 52.9%
- inhibition [19]: 15%
- inhibition [20]: 25.9%
- inhibition [21]: 22.5%
- inhibition [22]: 62.8%
- inhibition [23]: -5.9%
- inhibition [24]: 14.7%
- inhibition [25]: 3.3%
- inhibition [26]: 88.3%
- inhibition [27]: 76.5%
- inhibition [28]: 22.5%
- inhibition [29]: 52.8%
- inhibition [30]: 7.6%
- inhibition [31]: 95.9%
- inhibition [32]: 20.4%
- inhibition [33]: 70.7%
- inhibition [34]: 52.3%
- inhibition [35]: 25.9%
- inhibition [36]: -5.9%
- inhibition [37]: 12.9%
